Assay results as given in patent US11674140B2, “Compositions and methods for treating facioscapulohumeral dystrophy” (THE CHILDREN'S MEDICAL CENTER CORPORATION, priority 2017, dated 2023).
“Also recorded” adds a separate entry of the source. For at least one compound, name, drawing or mass did not settle the structure.

Assays:
[1] = system: DUX4 toxicity; test: Caspase 3/7 activity assay (luciferase read-out) of DUX4-induced cell death; format: cell-based, human
Source text: FIGS. 14A and 14B illustrate a method for assaying cell death. FIG. 14A is a schematic diagram showing a method for assaying cell death by measuring Caspase 3/7 activity using a luciferase read-out.
FIG. 14B presents graphical data generated from the doxycycline-inducible assay.
The DUX4 gene encodes a transcription factor whose expression is rare, but extremely toxic. DUX4 transcription factor controls more than 100 early developmental genes. Misexpression of DUX4 is hypothesized to induce inappropriate expression of downstream genes to cause disease pathogenesis. […] Non-manifesting carriers of FSHD alleles who are found to express DUX4, point to the existence of genetic modifiers that may act to suppress DUX4 toxicity. The clinical, histopathological and molecular evidence for asymptomatic/non-manifesting carriers of FSHD is provided at FIGS. 1A-1F. As reported herein below, a genome-wide CRISPR loss-of-function library was used to identify genes that modulate DUX4 induced toxicity and act as genetic modifiers of FSHD (FIG. 1M). […] These genes were validated in vitro by generation of individual knock-out lines, using a Caspase-3/7 assay to quantify reduced DUX4-induced apoptosis, and using inhibitor compounds to mimic gene knock-outs. These genes are also being evaluated in vivo.
The abundance of sgRNAs in each of the LOF cell lines was measured (FIG. 12). […]

[2] = system: DUX4 inducible cell line; test: Cell death assay: caspase fluorescence (FITC) in DUX4 inducible cell line after doxycycline; format: cell-based; conditions: after 48 hours of doxycycline treatment
Description: FIG. 17A includes a series of micrographs. Fluorescence from labeled caspase is visible (fluorescein isothiocynate (FITC)) in a DUX4 inducible cell line after 48 hours of doxy cy cline treatment.
Cell death assay were then used to validate single knock-outs cell lines (FIGS. 17A-17C).

[3] = system: FSHD biomarkers MBDL3L3, TRIM42 and ZSCAN4; test: Quantitative real-time PCR of FSHD biomarkers in patient myotubes; format: cell-based, human
Description: One common way to test potential therapies for FSHD is to measure a reduction in FSHD biomarker genes (FIG. 16B). […] Briefly, patient primary myoblasts (17A and 16A) were placed in differentiation media. At day four, drug compounds were added, and myotubes were harvested 24 hours later. RNA extraction and cDNA synthesis was performed. Quantitative real-time PCR for FSHD biomarkers levels of MBDL3L3, TRIM42 and ZSCAN4 was performed. Results indicated a significant reduction in biomarker levels for the majority of drugs tested.

[4] = system: DUX4-injected zebrafish; test: DUX4-injected zebrafish model of FSHD; format: in vivo; conditions: drug 24 hr post-injection; day 7; compared to DUX4-injected no drug control group
Source text: FSHD has proven to be a difficult disease to model in animals given the primate-specific origins of DUX4, its sporadic activation and mosaic expression, as well as the complex epigenetic components associated with the disease. Our published DUX4 zebrafish model was the first to recapitulate the muscle-eye-ear combination of phenotypes described in human FSHD (FIGS. 1N-A, 1N-B, 1N-C). […] These established DUX4 models of FSHD provide for functional follow-up experiments for candidate genes identified in CRISPR screens.
Drugs that show efficacy in vitro can be tested in a zebrafish model of FSHD. […] After injecting DUX4 into zebrafish, the test subjects were then treated with the four drug compounds 24 hr post-injection. Injected fish were categorized into affected or unaffected groups based on whole-body phenotype (FIG. 18A).

SMILES	efficacy in vitro measured by caspase 3/7 activity [1]	caspase fluorescence [2]	efficacy in patient cell lines [3]	percentage of affected fish (whole-body phenotype) [4]
CO[C@H]1C[C@@H]2CC[C@@H](C)[C@@](O)(O2)C(=O)C(=O)N2CCCC[C@H]2C(=O)O[C@H]([C@H](C)C[C@@H]2CC[C@@H](O)[C@H](OC)C2)CC(=O)[C@H](C)/C=C(\C)[C@@H](O)[C@@H](OC)C(=O)[C@H](C)C[C@H](C)/C=C/C=C/C=C/1C [rapamycin]	showed efficacy in vitro	reduced caspase fluorescence	efficacy	significantly reduced; also recorded: significantly decreased percentage of affected fish
COC[C@H]1OC(=O)c2coc3c2[C@@]1(C)C1=C(C3=O)[C@@H]2CCC(=O)[C@@]2(C)C[C@H]1OC(C)=O [wortmannin]	showed efficacy in vitro	reduced caspase fluorescence	efficacy	significantly reduced; also recorded: significantly decreased percentage of affected fish
